At least one compound was matched to its structure with a doubt left.
What was measured:
HIF-1α [1] = assay: HIF-1α accumulation in A549 cells by immunofluorescence imaging; type: cell-based, human; conditions: A549, 250 μM deferoxamine, 20 h
Method: Therefore, we performed experiments to determine whether avasimibe can suppress either hypoxia-induced HIF-1α stabilization or subsequent nuclear translocation. For the former study, A549 cells were plated onto 96-well BD poly-(D-lysine) coated, black-wall clear-bottom plates at a density of 5000 cells/well, and allowed to attach for 6 h. The indicated drugs were added to achieve the final concentrations, and cells were grown in the presence or absence of 250 μM deferoxamine in growth medium. After 20 h, the cells were fixed with pre-warmed 3.7% paraformaldehyde for 10 min at 37° C., washed with PBS, and stained with BD anti-HIF-1α monoclonal antibody in 1% donkey serum PBS for 4 h, washed 6 times with PBS, incubated with anti-mouse Alexa Fluor 488 conjugated secondary antibody and Hoechst nuclear dye, washed 6 times with PBS, and 200 μl PBS was kept in each well in the end. Cell images were acquired with Cellomics ArrayScan 4.5 and quantified with Compartmental Analysis Bio-application software. The total cellular intensity (combined cytoplasmic and nuclear intensity) of HIF-1α was used as a parameter for the total amount of HIF-1α in the cell.
Re-examination of the data set from these studies using a different set of scoring parameters allowed a determination as to whether avasimibe could suppress nuclear accumulation of HIF-1α.

VEGF [2] = assay: VEGF in conditioned medium from colon 26 cells (ELISA); type: cell-based, mouse; conditions: 75 μM CoCl2, 24 h, concentration-dependent
[3] = system: hypoxia response element (HRE); assay: HRE activation in HepG2 cells; type: cell-based, human; conditions: HepG2, hypoxia inducer 1% O2
[4] = system: hypoxia response element (HRE); assay: HRE activation in SH-SY5Y cells; type: cell-based, human; conditions: hypoxia inducer 1% O2
[5] = system: hypoxia response element (HRE); assay: HRE activation in HeLa cells; type: cell-based, human
Colon 26 tumor cells = assay: Colon 26 subcutaneous tumor growth in Balb/c mice; type: in vivo, mouse
HIF-1α [6] = assay: HIF-1α accumulation in HeLa and HT-1080 cells; type: cell-based; conditions: HeLa and HT-1080 cell lines
HO-1 promoter = assay: HO-1::luciferase transgenic mouse, CdCl2-induced hypoxia; type: in vivo; conditions: 6 h post-CdCl2, abdominal and mid-back regions; avasimibe 3 or 30 mg/kg
VEGF transcript = assay: Hypoxia-induced VEGF transcript in HeLa cells (TaqMan); type: cell-based, human; conditions: for endogenous VEGF transcript: 20 h, Example 8
Method: For these studies HeLa cells were plated at a density of 1×10^6 cells per 10 cm dish, using Dulbecco's modified Eagle's medium (DMEM), and allowed to attach overnight. The medium was aspirated and replaced with fresh DMEM, complete with or without the indicated concentrations of avasimibe, and exposed to hypoxic conditions for 20 h using a Modular Incubator Chamber (atmospheric conditions of 5% CO2 and 1% O2 (Billups-Rothenberg, Inc.). Total RNA was then extracted from the pelleted cells using an RNeasy RNA extraction kit (Qiagen) per the manufacturer's protocol. The RNA samples were then analyzed for transcript expression using TaqMan probes from Applied Biosciences, Inc.
As described in Example 7 above, avasimibe can suppress hypoxia-induced transcriptional regulation of endogenous VEGF transcription in HeLa cells. […] For these experiments, HeLa cells were grown under either normoxia or hypoxia (atmospheric conditions of 5% CO2 and 1% O2) for a total of 20 h in the absence or presence of either avasimibe or echinomycin, an antimicrobial and anti-tumor agent that can inhibit hypoxia-inducible factor 1 (HIF-1) DNA-binding activity (Kong et al. (2005) Cancer Research 65:9047-9055). Total RNA was then extracted from the pelleted cells using an RNeasy RNA extraction kit (Qiagen) per the manufacturer's protocol. The RNA samples were then analyzed for transcript expression using TaqMan probes from Applied Biosciences, Inc.
Candidate genes studied included insulin-like growth factor binding protein 3 (IGF-BP3) and carbonic anhydrase 9 (CA9); the former gene product is important for cell proliferation and survival while the latter is critical for cellular pH regulation. For these studies, HeLa cells were plated in DMEM at a density of 1×10^6 cells per 10 cm dish and allowed to attach overnight. […] The RNA samples were then analyzed for transcript expression using primer and probes obtained from Applied Biosciences, Inc.

VEGF [7] = assay: VEGF protein in conditioned medium from HeLa cells; type: cell-based, human

SMILES | hypoxia-induced whole cell accumulation of HIF-1α (HIF-1α [1]) | nuclear accumulation of HIF-1α (HIF-1α [1]) | detectable VEGF antigen in conditioned medium (VEGF [2]) | HRE activation repression by avasimibe [3] | HRE activation repression by avasimibe [4] | HRE activation repression by avasimibe ([5]; hypoxia inducer 1% O2) | HRE activation repression by avasimibe ([5]; hypoxia inducer CoCl2) | HRE activation repression by avasimibe ([5]; hypoxia inducer deferoxamine) | final tumor weight (Colon 26 tumor cells; 10 or 100 mg/kg b.i.d. p.o., day 21) | progression of tumor growth (tumor volume) (Colon 26 tumor cells; 10 or 100 mg/kg b.i.d. p.o., over course of study) | progression of tumor growth (tumor volume) (Colon 26 tumor cells; higher dose of avasimibe (100 mg/kg b.i.d. p.o.)) | whole cell accumulation or nuclear translocation of HIF-1α (HIF-1α [6]) | CdCl2-induced luciferase reporter activation (HO-1 promoter) | hypoxia-induced VEGF transcript (VEGF transcript; 1% O2 for 20 h, real-time quantitative PCR, Example 6) | endogenous VEGF transcript (VEGF transcript; hypoxic conditions (1% O2)) | endogenous VEGF transcript (VEGF transcript; normoxic conditions) | VEGF production (VEGF [7]; 1% O2 atmosphere to induce hypoxia) | detectable VEGF antigen in conditioned medium (VEGF [7]; hypoxia induced by 100 μM deferoxamine)
O=c1cc(N2CCOCC2)oc2c(-c3ccccc3)cccc12 [LY-294002] | diminished | diminished |  |  |  |  |  |  |  |  |  |  |  |  |  |  |  | 
CC(C)c1cc(C(C)C)c(CC(=O)NS(=O)(=O)Oc2c(C(C)C)cccc2C(C)C)c(C(C)C)c1 [avasimibe] |  | no evidence was found for diminished HIF-1α antigen | suppressed | yes | yes | yes | yes | yes | dose-dependent significant effect | dose-dependently slowed | significant effect | does not suppress | repressed | reduced hypoxia-induced VEGF transcript in a concentration-dependent fashion | clear suppressive effect | minimal to no impact | quantitatively similar effect | reduce detectable VEGF antigen
